# According to US8673951B2, “Isoxazoline-substituted benzamide compound and pesticide” (priority 2005, dated 2014):
# Some of these results come from one statement about several compounds together. At least one compound was matched to its structure with a doubt left.
# Tested on: cabbage moth (Plutella xylostella)
# Test: Insecticidal test against cabbage moth (Test Example 1)
# Format: in vivo
# Settings: chemical solution 10 ppm (**); cabbage leaf dip; second instar larva; after 6 days; 25° C.
row,Structure (SMILES),insecticidal rate (rate of dead insects) [%]
1,CCOCN(C(=O)OC)C(=O)c1ccc(C2=NOC(c3cc(Cl)cc(Cl)c3)(C(F)(F)F)C2)cc1I (racemic) [3-073],≥ 80
2,COC(=O)N(COC(C)C)C(=O)c1ccc(C2=NOC(c3cc(Cl)cc(Cl)c3)(C(F)(F)F)C2)cc1C (racemic) [3-074],≥ 80
3,CCC(=O)OCN(C(=O)OC)C(=O)c1ccc(C2=NOC(c3cc(Cl)cc(Cl)c3)(C(F)(F)F)C2)cc1C (racemic) [3-075],≥ 80
4,COC(=O)OCN(C(=O)OC)C(=O)c1ccc(C2=NOC(c3cc(Cl)cc(Cl)c3)(C(F)(F)F)C2)cc1C (racemic) [3-076],≥ 80
5,CCOCC(=O)N(C(=O)OC)C(=O)c1ccc(C2=NOC(c3cc(Cl)cc(Cl)c3)(C(F)(F)F)C2)cc1C (racemic) [3-078],≥ 80
6,CCOCN(C(=O)OCC)C(=O)c1ccc(C2=NOC(c3cc(Cl)cc(Cl)c3)(C(F)(F)F)C2)cc1C (racemic) [3-079],≥ 80
7,CCC(=O)N(C(=O)OC)C(=O)c1ccc(C2=NOC(c3cc(C(F)(F)F)cc(C(F)(F)F)c3)(C(F)(F)F)C2)cc1C (racemic) [3-081],≥ 80
8,COCc1cc(C2=NOC(c3cc(Cl)cc(Cl)c3)(C(F)(F)F)C2)ccc1C(=O)N(C(C)=O)C(=O)OC (racemic) [3-083],≥ 80
9,CCOCN(C(=O)OC)C(=O)c1ccc(C2=NOC(c3cc(C(F)(F)F)cc(C(F)(F)F)c3)(C(F)(F)F)C2)cc1 (racemic) [3-084],≥ 80
10,COC(=O)NC(=O)N(C)C(=O)c1ccc(C2=NOC(c3cc(Cl)cc(Cl)c3)(C(F)(F)F)C2)cc1C (racemic) [4-008],≥ 80
11,Cc1cc(C2=NOC(c3cc(Cl)cc(Cl)c3)(C(F)(F)F)C2)ccc1C(=O)N(C)C(=O)NC(=O)c1ccccc1 (racemic) [4-010],≥ 80
12,CCN(C(=O)OC)C(=O)N(C)C(=O)c1ccc(C2=NOC(c3cc(Cl)cc(Cl)c3)(C(F)(F)F)C2)cc1C (racemic) [4-012],≥ 80
13,CONC(=O)NC(=O)c1ccc(C2=NOC(c3cc(Cl)cc(Cl)c3)(C(F)(F)F)C2)cc1C (racemic) [4-013],≥ 80
14,NC(=O)NC(=O)c1ccc(C2=NOC(c3cc(Cl)cc(Cl)c3)(C(F)(F)F)C2)cc1Cl (racemic) [4-014],≥ 80
15,NC(=O)NC(=O)c1ccc(C2=NOC(c3cc(Cl)cc(Cl)c3)(C(F)(F)F)C2)cc1Br (racemic) [4-015],≥ 80
16,CCOC(=O)N(C(=O)c1ccc(C2=NOC(c3cc(Cl)cc(Cl)c3)(C(F)(F)F)C2)cc1C)c1ncc(Cl)cn1 (racemic) [5-109],≥ 80
17,CCCOC(=O)N(C(=O)c1ccc(C2=NOC(c3cc(Cl)cc(Cl)c3)(C(F)(F)F)C2)cc1C)c1ncc(Cl)cn1 (racemic) [5-110],≥ 80
18,Cc1cc(C2=NOC(c3cc(Cl)cc(Cl)c3)(C(F)(F)F)C2)ccc1C(=O)N(C(=O)OCC(C)C)c1ncc(Cl)cn1 (racemic) [5-111],≥ 80
19,Cc1cc(C2=NOC(c3cc(Cl)cc(Cl)c3)(C(F)(F)F)C2)ccc1C(=O)N(C(=O)OCCl)c1ncc(Cl)cn1 (racemic) [5-112],≥ 80
20,COCCOC(=O)N(C(=O)c1ccc(C2=NOC(c3cc(Cl)cc(Cl)c3)(C(F)(F)F)C2)cc1C)c1ncc(Cl)cn1 (racemic) [5-113],≥ 80
21,Cc1cc(C2=NOC(c3cc(Cl)cc(Cl)c3)(C(F)(F)F)C2)ccc1C(=O)N(C)c1ncc(Br)cn1 (racemic) [5-114],≥ 80
22,CCN(C(=O)c1ccc(C2=NOC(c3cc(Cl)cc(Cl)c3)(C(F)(F)F)C2)cc1C)c1ncc(Br)cn1 (racemic) [5-115],≥ 80
23,COCN(C(=O)c1ccc(C2=NOC(c3cc(Cl)cc(Cl)c3)(C(F)(F)F)C2)cc1C)c1ncc(Br)cn1 (racemic) [5-116],≥ 80

# Same assay, conditions: chemical solution 100 ppm (*); cabbage leaf dip; second instar larva; after 6 days; 25° C.
row,Structure (SMILES),insecticidal rate (rate of dead insects) [%]
1,CCC(C)OC(=O)NC(=O)c1ccc(C2=NOC(c3cc(Cl)cc(Cl)c3)(C(F)(F)F)C2)cc1C (mixture of isomers) [1-012],≥ 80
2,CCC(C)OC(=O)N(C)C(=O)c1ccc(C2=NOC(c3cc(Cl)cc(Cl)c3)(C(F)(F)F)C2)cc1C (mixture of isomers) [1-013],≥ 80
3,COC(=O)N(Cc1ccccc1)C(=O)c1ccc(C2=NOC(c3cc(Cl)cc(Cl)c3)(C(F)(F)F)C2)cc1C (racemic) [1-001],≥ 80
4,CCOC(=O)NC(=O)c1ccc(C2=NOC(c3cc(Cl)cc(Cl)c3)(C(F)(F)F)C2)cc1C (racemic) [1-002],≥ 80
5,CCOC(=O)N(CC)C(=O)c1ccc(C2=NOC(c3cc(Cl)cc(Cl)c3)(C(F)(F)F)C2)cc1C (racemic) [1-003],≥ 80
6,CCCOC(=O)NC(=O)c1ccc(C2=NOC(c3cc(Cl)cc(Cl)c3)(C(F)(F)F)C2)cc1C (racemic) [1-004],≥ 80
7,Cc1cc(C2=NOC(c3cc(Cl)cc(Cl)c3)(C(F)(F)F)C2)ccc1C(=O)NC(=O)OC(C)C (racemic) [1-005],≥ 80
8,C#CCN(C(=O)OC(C)C)C(=O)c1ccc(C2=NOC(c3cc(Cl)cc(Cl)c3)(C(F)(F)F)C2)cc1C (racemic) [1-006],≥ 80
9,CC(=O)N(C(=O)OC(C)C)C(=O)c1ccc(C2=NOC(c3cc(Cl)cc(Cl)c3)(C(F)(F)F)C2)cc1C (racemic) [1-007],≥ 80
10,COC(=O)N(C(=O)OC(C)C)C(=O)c1ccc(C2=NOC(c3cc(Cl)cc(Cl)c3)(C(F)(F)F)C2)cc1C (racemic) [1-008],≥ 80
11,Cc1cc(C2=NOC(c3cc(Cl)cc(Cl)c3)(C(F)(F)F)C2)ccc1C(=O)NC(=O)OCC(C)C (racemic) [1-010],≥ 80
12,Cc1cc(C2=NOC(c3cc(Cl)cc(Cl)c3)(C(F)(F)F)C2)ccc1C(=O)N(C)C(=O)OC(C)(C)C (racemic) [1-016],≥ 80
13,Cc1cc(C2=NOC(c3cc(Cl)cc(Cl)c3)(C(F)(F)F)C2)ccc1C(=O)NC(=O)OCC1CC1 (racemic) [1-017],≥ 80
14,Cc1cc(C2=NOC(c3cc(Cl)cc(Cl)c3)(C(F)(F)F)C2)ccc1C(=O)NC(=O)OC1CCC1 (racemic) [1-018],≥ 80
15,COCCOC(=O)NC(=O)c1ccc(C2=NOC(c3cc(Cl)cc(Cl)c3)(C(F)(F)F)C2)cc1C (racemic) [1-026],≥ 80
16,CSCCOC(=O)NC(=O)c1ccc(C2=NOC(c3cc(Cl)cc(Cl)c3)(C(F)(F)F)C2)cc1C (racemic) [1-031],≥ 80
17,Cc1cc(C2=NOC(c3cc(Cl)cc(Cl)c3)(C(F)(F)F)C2)ccc1C(=O)NC(=O)OCCS(C)(=O)=O (racemic) [1-032],≥ 80
18,COCCOC(=O)N(C(=O)OC)C(=O)c1ccc(C2=NOC(c3cc(Cl)cc(Cl)c3)(C(F)(F)F)C2)cc1C (racemic) [3-070],≥ 80
19,CCOC(=O)N(C)C(=O)c1ccc(C2=NOC(c3cc(Cl)cc(Cl)c3)(C(F)(F)F)C2)cc1COC (racemic) [3-082],≥ 80
20,NC(=O)NC(=O)c1ccc(C2=NOC(c3cc(Cl)cc(Cl)c3)(C(F)(F)F)C2)cc1I (racemic) [4-001],≥ 80
21,CC(=O)NC(=O)N(C)C(=O)c1ccc(C2=NOC(c3cc(Cl)cc(Cl)c3)(C(F)(F)F)C2)cc1C (racemic) [4-004],≥ 80
22,Cc1cc(C2=NOC(c3cc(Cl)cc(Cl)c3)(C(F)(F)F)C2)ccc1C(=O)NC(=O)NC(=O)CCl (racemic) [4-005],≥ 80
23,Cc1cc(C2=NOC(c3cc(Cl)cc(Cl)c3)(C(F)(F)F)C2)ccc1C(=O)N(C)C(=O)NC(=O)C(Cl)(Cl)Cl (racemic) [4-007],≥ 80
24,Cc1cc(C2=NOC(c3cc(Cl)cc(Cl)c3)(C(F)(F)F)C2)ccc1C(=O)NC(N)=S (racemic) [4-009],≥ 80
25,Cc1cc(C2=NOC(c3cc(Cl)cc(Cl)c3)(C(F)(F)F)C2)ccc1C(=O)N(C)c1ccccc1 (racemic) [5-001],≥ 80
26,Cc1cc(C2=NOC(c3cc(Cl)cc(Cl)c3)(C(F)(F)F)C2)ccc1C(=O)N(c1ccccc1)C(C)C (racemic) [5-003],≥ 80
27,Cc1cc(C2=NOC(c3cc(Cl)cc(Cl)c3)(C(F)(F)F)C2)ccc1C(=O)N(C)c1ccc(F)cc1 (racemic) [5-004],≥ 80
28,Cc1cc(C2=NOC(c3cc(Cl)cc(Cl)c3)(C(F)(F)F)C2)ccc1C(=O)N(CC(F)(F)F)c1ccc(F)cc1 (racemic) [5-006],≥ 80
29,COC(=O)N(C(=O)c1ccc(C2=NOC(c3cc(Cl)cc(Cl)c3)(C(F)(F)F)C2)cc1C)c1ncc(Cl)cn1 (racemic) [5-108],≥ 80

# Same assay, conditions: chemical solution 500 ppm; cabbage leaf dip; second instar larva; after 6 days; 25° C.
row,Structure (SMILES),insecticidal rate (rate of dead insects) [%]
1,CCC(C)OC(=O)N(C)C(=O)c1ccc(C2=NOC(c3cc(Cl)cc(Cl)c3)(C(F)(F)F)C2)cc1C (mixture of isomers) [1-015],≥ 80
2,CCCCOC(=O)NC(=O)c1ccc(C2=NOC(c3cc(Cl)cc(Cl)c3)(C(F)(F)F)C2)cc1C (racemic) [1-009],≥ 80
3,Cc1cc(C2=NOC(c3cc(Cl)cc(Cl)c3)(C(F)(F)F)C2)ccc1C(=O)N(C)C(=O)OCC(C)C (racemic) [1-011],≥ 80
4,Cc1cc(C2=NOC(c3cc(Cl)cc(Cl)c3)(C(F)(F)F)C2)ccc1C(=O)N1CCOC1=O (racemic) [3-071],≥ 80
5,Cc1cc(C2=NOC(c3cc(Cl)cc(Cl)c3)(C(F)(F)F)C2)ccc1C(=O)N1C(=O)OC(C)(C)C1=O (racemic) [3-072],≥ 80
6,COC(=O)N(COCC(F)(F)F)C(=O)c1ccc(C2=NOC(c3cc(C(F)(F)F)cc(C(F)(F)F)c3)(C(F)(F)F)C2)cc1 (racemic) [3-085],≥ 80
